Experimental data published in patent publication US20110237560A1, “MODULATING AND/OR DETECTING ACTIVATION INDUCED DEAMINASE AND METHODS OF USE THEREOF” (priority 2010, published 2011).
No constants are given. Whether binding was seen depends on the method and setting. Binding seen in cells or lysates may run through a third protein. Some results given as binding are weak or reduced against the parent protein; the word gives no strength.

Protein sequences, listed by entry. Tags and fused reporters are not part of them. Lines headed by an entry give the natural chain unless they say otherwise; changes in a name come on top.
UniProt Q9UNE7: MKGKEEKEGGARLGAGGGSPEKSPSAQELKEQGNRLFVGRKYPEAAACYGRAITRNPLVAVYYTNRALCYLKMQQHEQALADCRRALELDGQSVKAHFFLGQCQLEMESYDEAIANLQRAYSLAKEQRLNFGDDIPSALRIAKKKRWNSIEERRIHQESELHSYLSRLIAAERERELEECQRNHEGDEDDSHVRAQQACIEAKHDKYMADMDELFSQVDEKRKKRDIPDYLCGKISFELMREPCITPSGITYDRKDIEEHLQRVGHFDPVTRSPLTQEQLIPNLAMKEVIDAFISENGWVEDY
UniProt Q9GZX7: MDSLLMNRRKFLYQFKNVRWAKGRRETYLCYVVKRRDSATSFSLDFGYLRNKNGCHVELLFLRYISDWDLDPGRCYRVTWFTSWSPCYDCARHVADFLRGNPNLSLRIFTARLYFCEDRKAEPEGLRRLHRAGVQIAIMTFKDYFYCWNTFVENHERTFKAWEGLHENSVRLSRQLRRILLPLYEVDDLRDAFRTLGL

Experiments:
Myc-human CHIP (human) [1] = molecular target: Myc-human CHIP (human) (UniProt Q9UNE7); assay: anti-GFP co-immunoprecipitation from HeLa; only apparent when the proteasome was inhibited (MG132)
Myc-human CHIP (human) [2] = molecular target: Myc-human CHIP (human) (UniProt Q9UNE7); assay: anti-GFP co-immunoprecipitation from HeLa cells stably expressing AID-GFP and transfected with myc-CHIP, western blot anti-myc

human AID-GFP (from UniProt Q9GZX7 1-198) (enzyme)
binding (Myc-human CHIP (human) [1]): binds | binding (Myc-human CHIP (human) [2]): binds
